The list shows a part of the results. Shown are side measurements of this screen, not its main read-out; they come without a call. The list favours compounds with an active or inconclusive main result. Words in brackets tell the shape of the fitted curve; partial curves, single points and poor fits give uncertain potencies.
Experiment: IkB Signaling
Conditions: ABC-DLBCL IkBa-CBG/CBR dual luciferase ratio (green luciferase fused to IkBa over red control in OCI-Ly3 lymphoma cells), 4 h; measured here: control luc red channel unless noted
Procedure, shortened: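 Curves were fitted separately to fusion (green), unfused (red) and ratio luminescence, then classed by r2, magnitude and activity. Cells: OCI-Ly3, 4 h compound plus doxycycline at 37C; 10 uM MG-132 defined full response.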

Structure (SMILES) | AC50
CCOc1cccc2sc(N3CCN(C(=O)C(C)(C)C)CC3)nc12 | 6.31 µM [rising, partial curve]
Cc1ccc(-c2nnc(SCC(=O)N3CCCc4ccccc43)o2)cc1 | 39.8 µM [falling, single point]
CCn1cc(C(=O)NCc2ccc(Cl)cc2)c(=O)c2cc(S(=O)(=O)N3CCOCC3)ccc21 | 3.16 µM [falling, full curve, poor fit]
COc1cc(NC(=O)c2ccc3c(Cl)c4c(nc3c2)CCC4)cc(OC)c1OC | 2 µM [falling, full curve]
Cc1ccc(C(=O)Nc2ccc(S(=O)(=O)N3CCc4ccccc43)cc2)o1 | 7.94 µM [falling, partial curve]
O=C(COc1ccc([N+](=O)[O-])cc1)N1CCC(c2nc3ccccc3s2)CC1 | 10 µM [falling, partial curve]
CCc1ccc(CNC(=O)C2CCN(c3nnc(C)c4c(C)n(-c5ccc(C)cc5)nc34)CC2)cc1 | 2 µM [falling, full curve]
CCOc1ccc(N(C(C)C(=O)NCCSc2ccc(Cl)cc2)S(C)(=O)=O)cc1 (stereo not given) | 31.6 µM [falling, single point]
Cc1cc(NC(=O)c2cc(-c3ccc(Br)cc3)on2)nn1Cc1ccc(Cl)cc1 | 5.01 µM [rising, single point]
COc1cc(OC)cc(C(=O)Nc2ccc(-c3nc4ccccc4s3)c(C)c2)c1 | 3.98 µM [rising, partial curve]
Cc1ccc(N2C(=O)CS(=O)(=O)C23C(=O)N(Cc2ccccc2C)c2ccccc23)cc1Cl (stereo not given) | 3.98 µM [falling, partial curve, poor fit]
O=C1C(C=Nc2ccccc2O)=C(O)c2ccccc21 | 5.01 µM [falling, partial curve]
CCCc1ccc(Oc2cn[nH]c2-c2ccc(O)c(C)c2O)cc1 | 15.8 µM [falling, partial curve]
Cc1sc2nc(CN(Cc3cccs3)C(=O)C3CC3)[nH]c(=O)c2c1C | 31.6 µM [falling, single point]
Cc1nc2ccn(Cc3ccco3)c(=O)c2cc1C(=O)Nc1ccc(F)cc1 | 12.6 µM [falling, partial curve]
COc1ccc(NC(=O)Cn2nc(-c3ccccc3)c3cnc4ccc(C)cc4c32)cc1 | 25.1 µM [rising, partial curve]
Cc1ccc(OCC(=O)Nc2ccc3c(c2)sc(=O)n3C)cc1 | 25.1 µM [falling, single point]
COc1ccc(-n2c(=O)[nH]c3cc(C(=O)NCCc4ccc(Cl)cc4)ccc3c2=O)cc1OC | 0.2 µM [falling, partial curve, poor fit]
CNC(=O)[C@H]1O[C@H](n2cnc3c(NCc4cccc(I)c4)nc(Cl)nc32)[C@@H](O)[C@@H]1O | 39.8 µM [falling, single point]
COc1ccc(NC(=O)C(NC(=O)C2CCC(C)CC2)C(C)C)cc1 (stereo not given) | 0.00631 µM [falling, full curve, poor fit]

Structure (SMILES) | AC50
CCCNC(=O)c1ccc2c(c1)nc(C)n2-c1cccc(C)c1 | 0.0316 µM [rising, full curve, poor fit]
Cc1nn(C)c2c1c(C(F)(F)F)cc(=O)n2C(C)C(=O)NCCC(C)C (stereo not given) | 12.6 µM [falling, partial curve]
COc1ccccc1NC(=O)CNC(=O)c1ccccc1 | 2.51 µM [falling, full curve]
Cc1ccc(NC(=O)c2nnn(Cc3cccc(C(F)(F)F)c3)c2N)c(C)c1 | 1.26 µM [falling, full curve, poor fit]
COc1ccc(CNC(=O)CCc2c(C)c3ccc(OC)c(C)c3oc2=O)cc1OC | 2.51 µM [rising, partial curve]
COC(=O)c1ccc(-n2nnc(-c3nc(-c4ccccc4Cl)no3)c2C)cc1 | 20 µM [rising, partial curve]
Cc1ccnc(NC(=O)CCCOc2cc(=O)n(C)c3ccccc23)c1 | 2 µM [falling, full curve]
COc1cc(NC(=O)CSc2nc(-c3ccc(C(C)C)cc3)no2)cc(OC)c1 | 1 µM [falling, full curve]
Cc1occc1-c1nnc(SCC(=O)N2CCc3ccccc32)o1 | 20 µM [rising, partial curve] [measured here: IkB-luc green channel]
CCN1CCN(Cc2c(O)ccc3c(=O)c(Oc4ccccc4C(C)C)c(C(F)(F)F)oc23)CC1 | 12.6 µM [falling, partial curve]
COc1ccc(-c2nc(C#N)c(NC(C)c3ccccc3)o2)cc1OC (stereo not given) | 25.1 µM [falling, partial curve]
Cc1ccc(CNC(=O)c2cc3ccc4cccnc4c3[nH]2)cc1 | 10 µM [falling, partial curve]
COCCCn1c(CCC(=O)O)ccc1-c1ccc(F)cc1 | 25.1 µM [falling, partial curve]
COc1ccc(C2=Nc3ccc(OC(F)(F)F)cc3NC(c3cccnc3)=N2)cc1 | 39.8 µM [falling, single point]
COc1ccc(CNC(=O)C2CCN(S(=O)(=O)c3ccc4c(c3)CCCN4C(C)=O)CC2)cc1 | 39.8 µM [falling, single point]
CCc1ccccc1NC(=O)c1sc(-n2nc(C)c(Cc3ccccc3)c2C)nc1C | 0.0501 µM [falling, full curve, poor fit]
COCc1cc(C)nc2sc3c(=O)n(-c4ccccc4C(F)(F)F)nnc3c12 | 3.16 µM [rising, single point]
O=C(O)C1CC(=O)N(c2ccc(OCc3c(F)cccc3Cl)cc2)C1 (stereo not given) | 5.01 µM [falling, partial curve]
Cc1ccc(C)c(CSc2nnc3[nH]c(=O)cc(-c4ccccc4)n23)c1 | 25.1 µM [falling, single point]
CCNc1c(N)c(=O)oc2ccccc12 | 1 µM [falling, full curve]

Reformatted: entries from further up.
Structure (SMILES),AC50
CNC(=O)[C@H]1O[C@H](n2cnc3c(NCc4cccc(I)c4)nc(Cl)nc32)[C@@H](O)[C@@H]1O,"39.8 µM [falling, single point]"
Cc1nn(C)c2c1c(C(F)(F)F)cc(=O)n2C(C)C(=O)NCCC(C)C (stereo not given),"12.6 µM [falling, partial curve]"
COc1ccc(C2=Nc3ccc(OC(F)(F)F)cc3NC(c3cccnc3)=N2)cc1,"39.8 µM [falling, single point]"

Reference: PubChem BioAssay AID445 (National Center for Advancing Translational Sciences (NCATS), 2006)
